Experimental data reported in article PMC7819943, “Rice protein-binding microarrays: a tool to detect cis-acting elements near promoter regions in rice”.
The other results are listed elsewhere or left out.

Target: T1, OsSMF1 (Oryza sativa, UniProt Q6ZLB0 1-436)
T1 sequence: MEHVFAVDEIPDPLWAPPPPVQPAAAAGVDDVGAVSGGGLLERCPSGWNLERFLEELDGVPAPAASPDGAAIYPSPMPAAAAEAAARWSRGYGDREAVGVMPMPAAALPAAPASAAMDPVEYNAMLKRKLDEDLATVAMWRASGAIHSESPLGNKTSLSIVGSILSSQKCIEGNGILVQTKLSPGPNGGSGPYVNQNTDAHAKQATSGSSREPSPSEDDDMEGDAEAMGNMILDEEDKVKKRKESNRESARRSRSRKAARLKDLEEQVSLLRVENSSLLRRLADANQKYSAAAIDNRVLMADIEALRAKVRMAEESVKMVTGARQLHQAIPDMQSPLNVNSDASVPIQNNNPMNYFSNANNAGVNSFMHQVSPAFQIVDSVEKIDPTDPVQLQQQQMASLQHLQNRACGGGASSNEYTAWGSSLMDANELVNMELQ
Experiment: protein-binding microarray (RPBM); PBS, 2% BSA, 51.3 ng/ul salmon testes DNA, 50 uM zinc acetate, 200 nM TF, 25 C, 1 h; high values mean tight binding
Settings: protein: recombinant; tags: N-terminal polyhistidine and DsRed monomer fusion (pET32a); chain copies: 2; label: CyDye5-dUTP incorporated in the synthesized complementary strand; 3' TTTTT single-stranded linker to array surface; dsDNA, one strand shown
In short: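 Binding signal is defined as the fluorescence intensity of each feature in arbitrary units, read on an Axon 4000B scanner. Transcription factors with N-terminal polyhistidine and DsRed fusions came from E. coli BL21-CodonPlus and were purified on Ni–NTA. They were incubated at 200 nM for 1 h at 25 °C on a custom Agilent array that had been made double-stranded with Cy5-dUTP, with 50 µM zinc acetate present, and the array was washed.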

First: TACTACTTATCCATGCGCTGGACTTTGTCAAAATACGATGCGGAGTCACCTAGTGCAG
Second: ATTTTGGTGGGATGTGACGCATCCTATTTGTACTCCCACCCGGAGTCACCTAGTGCAG
The binding signal of the first is lower: 3330 fluorescence intensity (a.u.) for the first, 5420 fluorescence intensity (a.u.) for the second.

First: AAATAGTGAAATGCGAGATGATACCGCCTATTTGCCACTCCGGAGTCACCTAGTGCAG
Second: TACTCGTTTTCTGCCTGATCATGCGATGGAGCCATCCTTACGGAGTCACCTAGTGCAG
The binding signal of the first is lower: 21400 fluorescence intensity (a.u.) for the first, 21800 fluorescence intensity (a.u.) for the second.

Compared with “GATTACTGCATGCTAATCAGGAGAACACGTGTCACAGTGCCGGAGTCACCTAGTGCAG”, “TGGTTCGCTCGGTGGGTGGTGGTGGTTCTGTGAGCCCGCGCGGAGTCACCTAGTGCAG” is lower in binding signal: 15900 fluorescence intensity (a.u.) for the first, 3510 fluorescence intensity (a.u.) for the second.

Going from “TTGACCCTGATTTTATTTGACGCGGCTACTGAGTCAGCGTCGGAGTCACCTAGTGCAG” to “TCGCGACCTCCACCGCCTGCGTCACACGCCACACCACATCCGGAGTCACCTAGTGCAG”, the binding signal falls from 15200 fluorescence intensity (a.u.) to 6840 fluorescence intensity (a.u.).

Compared with “AACCCTCTTCAAGTACACGCGACACCGCTCGTCTTCGTCACGGAGTCACCTAGTGCAG”, “GCTCCCAGGCGCGCCACCCCTTGCTCCTCGGCCACGCGGGCGGAGTCACCTAGTGCAG” is lower in binding signal: 3450 fluorescence intensity (a.u.) for the first, 3260 fluorescence intensity (a.u.) for the second.

First: CATGTTTGAAATTTGAAAACAACAATATGTGTTCGTGTGTCGGAGTCACCTAGTGCAG
Second: AGATCCTAAACCGACCTAAGCAGTGGTGTGAATGGTGACTCGGAGTCACCTAGTGCAG
The binding signal of the first is higher: 29300 fluorescence intensity (a.u.) for the first, 4210 fluorescence intensity (a.u.) for the second.

Going from “TGTTAGTTTTGCATGCACAGAGATGATTAGGCAGTAGCAACGGAGTCACCTAGTGCAG” to “TCATTTTAGCGTTGTGGTCATGGATGGCGTCCTTGATCACCGGAGTCACCTAGTGCAG”, the binding signal rises from 3940 fluorescence intensity (a.u.) to 4400 fluorescence intensity (a.u.).

Going from “ATATACGGAACCCACAGAATTCAACAACGAACTCCTACTTCGGAGTCACCTAGTGCAG” to “CCGAAGTCACAGAGTATGTACAGACGACGACGTGTGCATCCGGAGTCACCTAGTGCAG”, the binding signal falls from 4040 fluorescence intensity (a.u.) to 3840 fluorescence intensity (a.u.).

Going from “TAATTACCAAATAAGAACAGGTAGACTATTAGTCAGCTACCGGAGTCACCTAGTGCAG” to “GTCACCAGTGACGCTACAACCAATCAATCTCGAGCTCTCCCGGAGTCACCTAGTGCAG”, the binding signal rises from 4300 fluorescence intensity (a.u.) to 6300 fluorescence intensity (a.u.).

Going from “TAAGCATTAGGGGCAAATTGGTCATTTGACCCACAAGACCCGGAGTCACCTAGTGCAG” to “CACAAGGACTAGAACCACAAAATCCATGTCATTGGCCATGCGGAGTCACCTAGTGCAG”, the binding signal falls from 4710 fluorescence intensity (a.u.) to 4050 fluorescence intensity (a.u.).

First: GACTAGCCTCCTCGGTGAATCATCTGTTGGCGTGGTCGGTCGGAGTCACCTAGTGCAG
Second: AAGCTGCCTGCCTTTCGTTTTCCAGCTTCCAACGCGATCTCGGAGTCACCTAGTGCAG
The binding signal of the first is lower: 4260 fluorescence intensity (a.u.) for the first, 12600 fluorescence intensity (a.u.) for the second.

Compared with “CATGAAATTTCAAAAGCCTAAAACCTTTGGACATGTCATTCGGAGTCACCTAGTGCAG”, “TCATTCCCTCCGTACCATTATGTTTGGGTTCTGTTGTGCTCGGAGTCACCTAGTGCAG” is higher in binding signal: 3340 fluorescence intensity (a.u.) for the first, 3650 fluorescence intensity (a.u.) for the second.

Compared with “ATTTATATTTTAAAATATACTTTTATATGACACTAATTTTCGGAGTCACCTAGTGCAG”, “GATATTTCCACTCCACTCCACGCAATCACCGTCCACCTGCCGGAGTCACCTAGTGCAG” is higher in binding signal: 3170 fluorescence intensity (a.u.) for the first, 3420 fluorescence intensity (a.u.) for the second.

Compared with “GGTTGGGTGGCAGTTACTGCCAACCTTACCTGCTGCCACCCGGAGTCACCTAGTGCAG”, “GAGTGTATTGTCATGCATGCATGGTAGTATACTATGGTAGCGGAGTCACCTAGTGCAG” is higher in binding signal: 3300 fluorescence intensity (a.u.) for the first, 4460 fluorescence intensity (a.u.) for the second.

First: CTGATCTTCGGATCGGCACCGCGAAAAGGAAACTTGCCCCCGGAGTCACCTAGTGCAG
Second: TATCGTGGCCACACCTTCGTGAGCTCTGCCTTTATTAGTTCGGAGTCACCTAGTGCAG
The binding signal of the first is higher: 3580 fluorescence intensity (a.u.) for the first, 3220 fluorescence intensity (a.u.) for the second.

Compared with “GACGCTCACGCTGACGCTGCTGCCTGGAATCACGTCTTGCCGGAGTCACCTAGTGCAG”, “CGGCACATCTCACAACGCAAAGCTTTAGCGCCGGAAACTGCGGAGTCACCTAGTGCAG” is lower in binding signal: 4770 fluorescence intensity (a.u.) for the first, 4390 fluorescence intensity (a.u.) for the second.

Compared with “CCATCTCTATATGTGACTCATAATAGTGTAAAAGCTCATCCGGAGTCACCTAGTGCAG”, “CTCACATACCCTCTCACAATCTCACGTCACCTCCGCCGTCCGGAGTCACCTAGTGCAG” is lower in binding signal: 7430 fluorescence intensity (a.u.) for the first, 5560 fluorescence intensity (a.u.) for the second.

First: AAAACTGGCGGACGTGCACCAGATCCAATGACGCGACGCCCGGAGTCACCTAGTGCAG
Second: CACCACAAGGAACCTAATCAGCTCACTTCGTCACGTGCATCGGAGTCACCTAGTGCAG
The binding signal of the first is higher: 4180 fluorescence intensity (a.u.) for the first, 3640 fluorescence intensity (a.u.) for the second.

First: ATCTAAGAATTAAGAAAGACAGGTGTTTGATGTTTGATGACGGAGTCACCTAGTGCAG
Second: GTGCCAATGGATGTGACATATGCATAGACATAAATAAGCACGGAGTCACCTAGTGCAG
The binding signal of the first is lower: 3210 fluorescence intensity (a.u.) for the first, 3220 fluorescence intensity (a.u.) for the second.

First: AAGTAAATGTAGATAAGGCCGTGTAATAAAGGTTGCTAGTCGGAGTCACCTAGTGCAG
Second: TTGTACAGGTGGGAATGAGGCACGAGAATCTGACCTGTTACGGAGTCACCTAGTGCAG
The binding signal of the first is higher: 56800 fluorescence intensity (a.u.) for the first, 3930 fluorescence intensity (a.u.) for the second.

Compared with “TTGGTTACAGCCCATTGACGGGCATCACATGCTGACTCGACGGAGTCACCTAGTGCAG”, “GTTAGACATGAACAGTGCTAAAACTGTACTTATTTTGGGACGGAGTCACCTAGTGCAG” is higher in binding signal: 6200 fluorescence intensity (a.u.) for the first, 24300 fluorescence intensity (a.u.) for the second.
